Measurements taken from patent publication US20260055141A1 (The Trustees of the University of Pennsylvania, priority 2022, published 2026).

Experiment: peptide synthesis
Conditions: whole synthesis

Substance | final HPLC purity
HsQGTFTSDLSKYLEEEVREFIWLKNGGPSDVNTDRPGLLDLK-NH2 | 100% purity
TFTSDLSKYLEEEVREFIWLKNGGPSDVNTDRPGLLDLK-NH2 | 98.3% purity
